Test results: the supplement of paper PMC7024190
Structures can show the parent of a compound that is named as a salt. This is one part of the list. Repeats in this data set agree poorly, so a single value says little.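 A first-round screen of about ten thousand compounds sought those raising reporter output, using human embryonic kidney cells briefly transfected with a plasmid carrying a Renilla luciferase gene driven by the HSV-TK promoter.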

Each molecule was assayed on HEK 293FT (assay: log relative Renilla luciferase luminescence (reporter expression vs reference, reference not stated) (log (base not stated)); higher = higher recombinant reporter expression). Settings: 10 µM; time after transfection 48 h.

Row | Structure (SMILES) | log
1 | O=C(O)c1cc(O)c(O)c(O)c1 [gallic acid] | -1.36
2 | CCN(CC)C(=O)N1CCN(C)CC1 [diethylcarbamazine citrate] | -0.00986
3 | CC(C)=CCC/C(C)=C/COc1ccc2ccc(=O)oc2c1 [auraptene] | -0.157
4 | Cc1cc(CC(C)CC(C)(C)C)n(O)c(=O)c1 (stereo not drawn) [piroctone olamine] | -0.99
5 | COc1c(OC)c2occc2c2oc(=O)ccc12 [pimpinellin] | 0.00912
6 | CN1CCC[C@H]1c1cccnc1 [nicotine bitartrate] | 0.19
7 | CCCC(C(=O)OCCN(CC)CC)(c1ccccc1)c1ccccc1 [proadifen hydrochloride] | -0.0202
8 | C[C@H](CCC(=O)NCC(=O)O)[C@H]1CC[C@H]2[C@@H]3[C@H](O)C[C@@H]4C[C@H](O)CC[C@]4(C)[C@H]3C[C@H](O)[C@]12C [glycocholic acid] | -0.0811
9 | Clc1ccc(COC(Cn2ccnc2)c2ccc(Cl)cc2Cl)cc1 (stereo not drawn) [econazole nitrate] | -0.0526
10 | Clc1ccccc1C(c1ccccc1)(c1ccccc1)n1ccnc1 [clotrimazole] | -0.134
11 | NC(=O)NO [hydroxyurea] | -0.0417
12 | CO/N=C1\CN(c2nc3c(cc2F)c(=O)c(C(=O)O)cn3C2CC2)CC1CN (stereo not drawn) [gemifloxacin mesylate] | 0.0999
13 | CC(=O)c1ccc2c(c1)N(CCCN1CCN(CCO)CC1)c1ccccc1S2 [acetophenazine maleate] | -0.0934
14 | O=C(O)c1cc(=O)c2c(OCC(O)COc3cccc4oc(C(=O)O)cc(=O)c34)cccc2o1 [cromolyn sodium] | -0.103
15 | O=c1c(O)c(-c2ccccc2)oc2cc(O)cc(O)c12 [galangin] | -0.148
16 | C=CCc1ccccc1OCC(O)CNC(C)C (stereo not drawn) [alprenolol] | -0.0325
17 | NC[C@H]1CC[C@H](C(=O)O)CC1 [tranexamic acid] | -0.0724
18 | Oc1c(Cl)cc(Cl)cc1Sc1cc(Cl)cc(Cl)c1O [bithionate sodium] | -1.25
19 | CC(=O)OC(C)C[N+](C)(C)C (stereo not drawn) [methacholine chloride] | 0.109
20 | CCCCOc1ccc(CC(=O)NO)cc1 [bufexamac] | 0.0865
21 | CCCCC[C@H](CC(=O)NO)C(=O)N[C@H](C(=O)N1CCC[C@H]1CO)C(C)C [actinonin] | -0.412
22 | Nc1nc(=O)c2c([nH]1)NCC(CNc1ccc(C(=O)N[C@@H](CCC(=O)O)C(=O)O)cc1)N2C=O (stereo partly drawn) [leucovorin calcium] | 0.0943
23 | COc1ccc2nc3cc(Cl)ccc3c(Nc3cc(CN4CCCC4)c(O)c(CN4CCCC4)c3)c2n1 [pyronaridine tetraphosphate] | 0.0261
24 | O=C(O)/C=C/C=C/c1ccc2c(c1)OCO2 [piperic acid] | 0.0859
25 | CC(C)CCC[C@@H](C)[C@H]1CC[C@H]2[C@@H]3CC=C4C[C@@H](O)CC[C@]4(C)[C@H]3CC[C@]12C [cholesterol] | 0.118
26 | Nc1ccn([C@@H]2O[C@H](CO)[C@@H](O)[C@H]2O)c(=O)n1 [cytidine] | 0.0518
27 | CN(C)CCC(c1ccccc1)c1ccccn1 (stereo not drawn) [pheniramine maleate] | 0.0599
28 | C=CC(C1=CC(=O)C(OC)=CC1=O)c1ccc(O)cc1 (stereo not drawn) [dalbergione, 4-methoxy-4'-hydroxy-] | -1.69
